The values are deposited in ChEMBL (CHEMBL3988442, “University of Dundee, Small-Polar-MMV Screening Library” (2021)).

Mtb growth Cornell: 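Whole-cell assay for inhibitors of Mycobacterium tuberculosis growth, labelled Cornell in the record; the read-out is not stated. The concentration is filed as 10 mM, unlikely as a test dose, so the dose is not known. The record gives no direction; compounds strong in two other growth screens of this library score well above the rest, so higher reads as stronger inhibition. Of about 53,000 compounds tested this way, about 900 (1.7%) reached 50% or more in at least one test.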
Mtb heat-shock: 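Assay on Mycobacterium tuberculosis, filed only as a heat shock assay from Cornell; the read-out is not stated. The concentration is filed as 10 mM, unlikely as a test dose, so the dose is not known. Direction is inferred from retests: higher values go with stronger inhibition. Size under these conditions: about 69,000 compounds, about 930 of them at 50% or above in at least one test.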

Results are given as percent effect.
How 0% and 100% were set is not recorded. Most values in the screen are low, and negative values occur.
This is an unselected part of the compounds tested.
A dash means the value is not listed here; it may have been measured.

With Cc1ccc(CN(C)CC(=O)NC2(C)CCS(=O)(=O)C2)cc1 (stereo not given) the screen gave Mtb heat-shock: -0.1094%.
With O=C(c1ccc2[nH]cnc2c1)N1CCC(COc2ccccn2)CC1 the screen gave Mtb growth Cornell: 5.121%; Mtb heat-shock: -7.023%.
With Cc1ccccc1Oc1ncccc1CNS(C)(=O)=O the screen gave Mtb growth Cornell: -11.44%; Mtb heat-shock: -4.991%.
With Cc1ccc(CN(CCCn2ccnc2)Cc2c[nH]nc2C(C)(C)C)s1.O=C(O)CC(O)(CC(=O)O)C(=O)O the screen gave Mtb growth Cornell: -41.46%; Mtb heat-shock: 9.157%.
With Cn1nc(Cn2cccn2)c2c1CN(Cc1ccoc1)C2.O=C(O)C(F)(F)F the screen gave Mtb growth Cornell: 32.93%; Mtb heat-shock: -23.45%.
With Cn1ccnc1CN1C[C@@H](F)[C@@H](OCc2nc3cnccc3[nH]2)C1 the screen gave Mtb growth Cornell: -35.2%; Mtb heat-shock: -15.31%.
With CS(=O)(=O)N1CC2(CCN(C3CCCCC3)C2)Cc2ccccc21 (stereo not given) the screen gave Mtb heat-shock: 16.87%.
With CCCc1nc(CNC(=O)Cc2csc(C)n2)cs1 the screen gave Mtb growth Cornell: -11.84%; Mtb heat-shock: 8.263%.
With CCC[C@H]1CN(c2nccc(NCC)n2)C[C@@H]1NS(=O)(=O)N(C)C the screen gave Mtb growth Cornell: 1.748%; Mtb heat-shock: -5.179%.
With COc1cc(OC)cc(C2CCN(CC(=O)NCC(F)(F)F)C2)c1 (stereo not given) the screen gave Mtb growth Cornell: 5.198%; Mtb heat-shock: -11.21%.
With Cc1cc(C)nc(NCc2cc3n(n2)CCCN(C(=O)C2CCC2)C3)n1 the screen gave Mtb growth Cornell: 15.36%; Mtb heat-shock: -1.733%.
With c1cc(CN2CCC(c3nnc4n3CCCCC4)CC2)c2c(c1)OCO2 the screen gave Mtb growth Cornell: 13.11%; Mtb heat-shock: -30.94%.
With CCOC(=O)C1=NOC(Cc2cc(OC)c3c(c2)OCO3)C1 (stereo not given) the screen gave Mtb growth Cornell: 94.96%; Mtb heat-shock: -17.07%.
With COC(=O)C(CO)NC(=O)c1cn(Cc2ccccc2F)nn1 (stereo not given) the screen gave Mtb growth Cornell: 14.57%; Mtb heat-shock: 12.92%.
With CCOC1CCCN(C(=O)c2cnc3c(cnn3C3CCCC3)c2)C1 (stereo not given) the screen gave Mtb growth Cornell: 20.61%; Mtb heat-shock: 1.347%.
With Cn1nc(Br)nc1Sc1ccccc1NC(=O)C1CC1 the screen gave Mtb heat-shock: 18.99%.
With [H][C@@]12CCN(C(=O)C3CCSCC3)C[C@]1(COCC1CC1)CCO2 the screen gave Mtb growth Cornell: -5.059%; Mtb heat-shock: 5.122%.
With CN1CC(C(=O)NCCOc2ccc3c(c2)OCO3)CC1=O (stereo not given) the screen gave Mtb growth Cornell: -6.26%; Mtb heat-shock: -6.402%.
With O=C1CN([C@@H]2CC[C@@H](NS(=O)(=O)c3ccccc3F)[C@H]2O)CCN1 the screen gave Mtb growth Cornell: -3.18%; Mtb heat-shock: -26.64%.
With Cc1cnn(CC2CCCN2C(=O)c2nccnc2N)c1 (stereo not given) the screen gave Mtb heat-shock: -0.7764%.
With CCc1cc(NCC(O)CN2CCCCC2)n2ncnc2n1 (stereo not given) the screen gave Mtb growth Cornell: 2.92%; Mtb heat-shock: 11.12%.
With [H][C@]12CN(c3cc(C#N)ccn3)CC[C@@]1(O)CCN(S(=O)(=O)N(C)C)C2 the screen gave Mtb heat-shock: -28.25%.
With NC(=O)CCn1ccc(NC(=O)c2ccc(OCC3CC3)cc2)n1 the screen gave Mtb growth Cornell: 7.017%; Mtb heat-shock: 28.86%.
With CC(OCC1CC1)C(=O)N1CCCN(c2ncccc2C#N)CC1 (stereo not given) the screen gave Mtb growth Cornell: -5.648%; Mtb heat-shock: -17.01%.
With CC(C)CC(NCc1ccsc1)c1ccccn1 (stereo not given) the screen gave Mtb growth Cornell: -12.96%; Mtb heat-shock: 95.2%.
With Cc1csc(CNC(=O)NC2CCCc3c2cnn3CCO)n1 (stereo not given) the screen gave Mtb growth Cornell: -38.54%; Mtb heat-shock: 6.076%.
With CCOc1ccc(Cl)c(C(=O)N2CCCC(c3cc(C)[nH]n3)C2)n1 (stereo not given) the screen gave Mtb growth Cornell: 0.3086%; Mtb heat-shock: -9.559%.
With Cc1cccc(CNc2nnc(C(C)C)o2)c1 the screen gave Mtb growth Cornell: 19.19%; Mtb heat-shock: 1.311%.
With COc1cc(NC(=O)C2CC(=O)N(c3cccc(F)c3)C2)ncn1 (stereo not given) the screen gave Mtb growth Cornell: 31.87%; Mtb heat-shock: 14.5%.
With CC(C)(C)c1cn(C2CCN(C3CCSC3)CC2)nn1 (stereo not given) the screen gave Mtb growth Cornell: -10.2%; Mtb heat-shock: -3.133%.
With CS(=O)(=O)NC1CCN(CCc2ccccc2)CC1 the screen gave Mtb growth Cornell: 0.3796%; Mtb heat-shock: 12.27%.
With CC(=O)NCc1noc2c1CN(Cc1cnn(C)c1)CC2 the screen gave Mtb growth Cornell: 17.56%; Mtb heat-shock: -12.69%.
With Cc1cnc(CN(C)C2CCN(Cc3nnc(C4CC4)o3)C2)o1 (stereo not given) the screen gave Mtb heat-shock: 16.65%.
With COc1cc(CNCc2ccnc(N3CCCCC3)c2)cc(OC)c1 the screen gave Mtb heat-shock: 1.356%.
With CCN(Cc1c(C)nn(C)c1C)C(=O)C1COc2ccccc2C1 (stereo not given) the screen gave Mtb growth Cornell: -14.83%; Mtb heat-shock: -16.96%.
With CCOCc1ccc(NC(=O)C(C)C)cc1 the screen gave Mtb growth Cornell: -21.71%; Mtb heat-shock: 30.28%.
With CCCC(C(=O)NCCc1nc(C)cs1)N(C)C (stereo not given) the screen gave Mtb growth Cornell: 17.03%; Mtb heat-shock: 12.4%.
With Clc1cc(CN2CCCC(Cn3cncn3)C2)c2ncccc2c1 (stereo not given) the screen gave Mtb heat-shock: -4.966%.
With O=C(c1cccs1)N1CCc2c(nc(N3CCCC3)[nH]c2=O)C1 the screen gave Mtb growth Cornell: 10.2%; Mtb heat-shock: -2.205%.
With CCc1nc(CNC2CCN(c3ccc(OC)cc3)CC2)cs1 the screen gave Mtb growth Cornell: 27.61%; Mtb heat-shock: -28.95%.
With COc1ccc(-n2ccc(CNCc3ccc(OC)c(O)c3)n2)cc1 the screen gave Mtb growth Cornell: 31.15%; Mtb heat-shock: -13.14%.
With CCOCCn1c(=O)[nH]c2cc(C(=O)N(C)Cc3cnn(C)c3)ccc21 the screen gave Mtb growth Cornell: -29.26%; Mtb heat-shock: 14.07%.
With CN(Cc1cc(C(C)(C)C)n[nH]1)C(=O)CCC(=O)NC1CCCC1 the screen gave Mtb growth Cornell: -1.828%; Mtb heat-shock: 0.3279%.
With Cc1ccc2c(c1)CN(C(=O)c1cnc(C)cn1)C(CN(C)C)CO2.Cl (stereo not given) the screen gave Mtb growth Cornell: -18.21%; Mtb heat-shock: -14.26%.
With Cc1nc(C)c(C(=O)NCCNC(=O)Cc2cccc(F)c2)s1 the screen gave Mtb growth Cornell: 31.64%; Mtb heat-shock: 5.551%.
With COc1ccc(Cc2nnc3n2N=C(C(C)(C)C)CS3)cc1 the screen gave Mtb heat-shock: -17.5%.

For reference, 6 entries once more:

structure,Mtb growth Cornell,Mtb heat-shock
CCOC(=O)C1=NOC(Cc2cc(OC)c3c(c2)OCO3)C1 (stereo not given),94.96,-17.07
CCOc1ccc(Cl)c(C(=O)N2CCCC(c3cc(C)[nH]n3)C2)n1 (stereo not given),0.3086,-9.559
CCCc1nc(CNC(=O)Cc2csc(C)n2)cs1,-11.84,8.263
O=C(c1cccs1)N1CCc2c(nc(N3CCCC3)[nH]c2=O)C1,10.2,-2.205
[H][C@]12CN(c3cc(C#N)ccn3)CC[C@@]1(O)CCN(S(=O)(=O)N(C)C)C2,-,-28.25
COC(=O)C(CO)NC(=O)c1cn(Cc2ccccc2F)nn1 (stereo not given),14.57,12.92